Results taken from US10988524B2 (priority 2018, dated 2021).

Assay: general procedure: Fmoc solid-phase peptide synthesis; Rink amide AM resin (Rink Amide AM LL, NovaBiochem)
Settings: whole synthesis, TFA salt

With “Ac-LEGREKVRAQI[Aib][Aib]EGQSTWS[Aib]RKK-NH2” the isolated mass was “m=50 mg”.
In the case of “Ac-LEGREKVRAQI[Aib][Aib]EG[Nle]STWS[Aib]RKK-NH2”, the isolated mass was “m=73 mg”.
In the case of “Ac-Leu-Glu-Gly-Arg-Glu-Lys-Val-Arg-Ala-K(Ac)-Ile-Aib-Aib-Glu-Gly-Nle-Ser-Thr-Trp-Ser-Aib-Arg-Lys-K(Ac)-NH2”, the isolated mass was “m=70 mg”.
In the case of “Ac-LEGREKVRAQI[Aib][Aib]EG[Nle]SQWS[Aib]RRR-NH2”, the isolated mass was “m=44 mg”.
For “Ac-LEGREKVRAQI[Aib][Aib]EG[Nle]STYS[Aib]RKK-NH2”, the isolated mass was “m=54 mg”.

Same assay, conditions: whole synthesis, UV, scale of the general procedure approximately 0.11 mmol, trifluoro acetate salt

First: Ac-LEGREKVRAQI[Aib][Aib]EGQSTWS[Aib]RKK-NH2
Second: Ac-LEGREKVRAQI[Aib][Aib]EG[Nle]STWS[Aib]RKK-NH2
The “final HPLC purity” value of the first is lower: 93% for the first, 98% for the second.

Compared with “Ac-Leu-Glu-Gly-Arg-Glu-Lys-Val-Arg-Ala-K(Ac)-Ile-Aib-Aib-Glu-Gly-Nle-Ser-Thr-Trp-Ser-Aib-Arg-Lys-K(Ac)-NH2”, “Ac-LEGREKVRAQI[Aib][Aib]EG[Nle]SQWS[Aib]RRR-NH2” is lower in “final HPLC purity” value: 97% for the first, 96% for the second.

In the case of “Ac-LEGREKVRAQI[Aib][Aib]EG[Nle]STYS[Aib]RKK-NH2”, the “final HPLC purity” value was 97%.

Same assay, conditions: whole synthesis, scale of the general procedure approximately 0.11 mmol, trifluoro acetate salt

Going from “Ac-LEGREKVRAQI[Aib][Aib]EGQSTWS[Aib]RKK-NH2” to “Ac-LEGREKVRAQI[Aib][Aib]EG[Nle]STWS[Aib]RKK-NH2”, the isolated yield rises from 14% to 21%.

Going from “Ac-Leu-Glu-Gly-Arg-Glu-Lys-Val-Arg-Ala-K(Ac)-Ile-Aib-Aib-Glu-Gly-Nle-Ser-Thr-Trp-Ser-Aib-Arg-Lys-K(Ac)-NH2” to “Ac-LEGREKVRAQI[Aib][Aib]EG[Nle]SQWS[Aib]RRR-NH2”, the isolated yield falls from 20% to 12%.

Work on “Ac-LEGREKVRAQI[Aib][Aib]EG[Nle]STYS[Aib]RKK-NH2” yielded an isolated yield of 15%.

Assay: general procedure: Fmoc solid-phase peptide synthesis; Rink Amide AM LL
Settings: whole synthesis, scale 0.11 mmol, trifluoro acetate salt

For “Ac-LEGREKVRAQI[Aib][Aib]EG[Nle]STWS[Aib]RKK-NH2”, the crude mass was 250 mg.

Same assay, conditions: whole synthesis, trifluoro acetate salt

Compared with “Ac-LEGREKVRAQI[Aib][Aib]EGQSTWS[Aib]RKK-NH2”, “Ac-Leu-Glu-Gly-Arg-Glu-Lys-Val-Arg-Ala-K(Ac)-Ile-Aib-Aib-Glu-Gly-Nle-Ser-Thr-Trp-Ser-Aib-Arg-Lys-K(Ac)-NH2” is higher in crude mass: 200 mg for the first, 250 mg for the second.

Compared with “Ac-LEGREKVRAQI[Aib][Aib]EG[Nle]SQWS[Aib]RRR-NH2”, “Ac-LEGREKVRAQI[Aib][Aib]EG[Nle]STYS[Aib]RKK-NH2” is higher in crude mass: 140 mg for the first, 169 mg for the second.

Non-standard residues stand in square brackets, D forms with d. Nle = CCCC[C@H](N)C(=O)O; Aib = CC(C)(N)C(=O)O
